Data on 4 molecules can be found in paper PMC9933293.

Chains of the proteins cited; added tags and fusions are not shown.
UniProt Q9UUK2: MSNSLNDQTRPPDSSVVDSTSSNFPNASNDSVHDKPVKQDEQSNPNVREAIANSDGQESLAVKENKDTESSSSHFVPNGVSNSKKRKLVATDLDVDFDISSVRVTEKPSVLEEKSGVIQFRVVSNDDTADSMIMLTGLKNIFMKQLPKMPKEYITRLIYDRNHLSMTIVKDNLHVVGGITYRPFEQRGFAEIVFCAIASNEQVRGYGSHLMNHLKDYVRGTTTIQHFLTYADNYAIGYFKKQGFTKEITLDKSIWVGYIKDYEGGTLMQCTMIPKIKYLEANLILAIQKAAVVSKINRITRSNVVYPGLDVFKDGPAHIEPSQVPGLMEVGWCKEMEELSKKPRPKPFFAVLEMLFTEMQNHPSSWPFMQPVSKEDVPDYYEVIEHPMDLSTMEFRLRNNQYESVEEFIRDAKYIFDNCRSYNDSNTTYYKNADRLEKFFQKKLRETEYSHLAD

Experiment in all cases: two-hybrid; Gal4-based; pGBKT7 and pGADT7 constructs co-transformed into S. cerevisiae PJ69-4a; growth on SD -Leu, -Trp, -His with 3-aminotriazole (0.5 mM AT; 10 mM AT for the self-activating Gal4BD-Smc5 CC arm) at 28 °C
For experiment [1], the target named is T1, Gal4BD-Smc5 CC arm (aa170-225 + 837-910) (S. pombe) (UniProt O13710).
T1 sequence: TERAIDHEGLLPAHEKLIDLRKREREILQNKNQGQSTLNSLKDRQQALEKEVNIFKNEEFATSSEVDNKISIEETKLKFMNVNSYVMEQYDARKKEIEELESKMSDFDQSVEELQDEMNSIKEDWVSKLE

Experiment [2] deals with T2, Gal4BD-Nse2 (aa2-178) (S. pombe) (UniProt Q4PIR3).
T2 sequence: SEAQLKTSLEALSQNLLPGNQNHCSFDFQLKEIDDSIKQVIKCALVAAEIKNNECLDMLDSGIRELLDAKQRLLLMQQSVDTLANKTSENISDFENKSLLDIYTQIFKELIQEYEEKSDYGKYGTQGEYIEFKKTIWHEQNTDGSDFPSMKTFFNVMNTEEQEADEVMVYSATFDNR

Experiment [3] deals with Gal4BD-Gcn5 (full-length) (S. pombe) (UniProt Q9UUK2).
In experiment [4] the target is T3, Gal4BD-Ada2 (full-length) (S. pombe) (UniProt Q9P7J7).
T3 sequence: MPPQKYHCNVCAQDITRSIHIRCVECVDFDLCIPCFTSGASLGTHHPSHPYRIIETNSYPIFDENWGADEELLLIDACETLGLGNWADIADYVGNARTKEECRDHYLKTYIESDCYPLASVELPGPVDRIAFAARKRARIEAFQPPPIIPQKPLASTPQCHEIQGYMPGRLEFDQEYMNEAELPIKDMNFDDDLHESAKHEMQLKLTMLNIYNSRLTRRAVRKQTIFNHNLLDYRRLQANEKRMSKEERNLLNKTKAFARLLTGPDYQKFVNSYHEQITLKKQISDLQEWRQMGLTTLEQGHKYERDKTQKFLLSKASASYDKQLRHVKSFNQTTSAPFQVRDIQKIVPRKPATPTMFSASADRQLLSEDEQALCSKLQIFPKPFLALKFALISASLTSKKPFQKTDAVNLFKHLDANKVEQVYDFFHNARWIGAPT

No constants are given. Whether binding was seen depends on the method and setting. Some binding calls cover weakened binding; strength is not graded here. For part of these data: Where a sequence is shown, tags or fusion partners need not be part of it.

B1: Gal4AD-Ada2 (full-length) (protein, UniProt Q9P7J7 1-437)
chain: MPPQKYHCNVCAQDITRSIHIRCVECVDFDLCIPCFTSGASLGTHHPSHPYRIIETNSYPIFDENWGADEELLLIDACETLGLGNWADIADYVGNARTKEECRDHYLKTYIESDCYPLASVELPGPVDRIAFAARKRARIEAFQPPPIIPQKPLASTPQCHEIQGYMPGRLEFDQEYMNEAELPIKDMNFDDDLHESAKHEMQLKLTMLNIYNSRLTRRAVRKQTIFNHNLLDYRRLQANEKRMSKEERNLLNKTKAFARLLTGPDYQKFVNSYHEQITLKKQISDLQEWRQMGLTTLEQGHKYERDKTQKFLLSKASASYDKQLRHVKSFNQTTSAPFQVRDIQKIVPRKPATPTMFSASADRQLLSEDEQALCSKLQIFPKPFLALKFALISASLTSKKPFQKTDAVNLFKHLDANKVEQVYDFFHNARWIGAPT
For the molecule B1, the binding entry in experiment [1] and in experiment [2] was “binds” throughout.

B2: Gal4AD-Nse3 (aa1-190) (domain or fragment, UniProt Q9Y7U4 1-190)
chain: MSQLSFTGKSSSKGRSRLTQEVRPTASQIIADEEASDLDEYEEDLEGSGNEDDFGPSMSRSSRGRKRRKGDPLELQSQFEERNETDAINFQLLVRNVVRYAICSQTSHNTITRKDIVQKAFPEGTSRNLFQSVFEEADRQLQLSFGFRLVAVTQSNRKKDMAVSQLRRPATSNANSSNLHRYWVLRSTLP
As for B2, the binding entry in experiment [3] is reported as “binds”.

B3: Gal4AD-Nse3 (aa200-307) (domain or fragment, UniProt Q9Y7U4 200-307)
chain: IVDSVLDTAYYGFLMTVIAFIAVSHCSVGHSELQSFLQELLTEEETTPLHLDITRSLSLLVRQGYLDRVKDDTHNQFVYYIGSRAVTEISIEGLKSFVTEFFPDSDID
On to B3, for which, in experiment [4], the binding result was “binds”.

B4: Nse3 subunit (two-hybrid construct, limits not told for this experiment) (protein, UniProt Q9Y7U4 1-328)
chain: MSQLSFTGKSSSKGRSRLTQEVRPTASQIIADEEASDLDEYEEDLEGSGNEDDFGPSMSRSSRGRKRRKGDPLELQSQFEERNETDAINFQLLVRNVVRYAICSQTSHNTITRKDIVQKAFPEGTSRNLFQSVFEEADRQLQLSFGFRLVAVTQSNRKKDMAVSQLRRPATSNANSSNLHRYWVLRSTLPMELQKDSRLIVDSVLDTAYYGFLMTVIAFIAVSHCSVGHSELQSFLQELLTEEETTPLHLDITRSLSLLVRQGYLDRVKDDTHNQFVYYIGSRAVTEISIEGLKSFVTEFFPDSDIDMDALLTEYRQEYQNQSSSSAA
As for B4, the binding entry in experiment [3] and in experiment [4] was “binds” each time.
